Like-named read-outs stand apart in the source and are kept apart here. Results are given in words; binding and its absence hold for the method and conditions named. Binding seen in cells or lysates may run through a third protein. A yes stands for co-enrichment or nearness to the bait. Other partners may have been found.
Key:
[1] = target: 13Myc-tagged Esp1 (S. cerevisiae) (UniProt Q03018); assay: affinity purification with mass spectrometry; one-step IP of Esp1-13Myc from lysate of logarithmically growing yeast with 9E10 anti-Myc antibody cross-linked to Sepharose, 4 h at 4°C, washes with 500mM NaCl; compared by spectral counting with a mock IP from an untagged strain
[2] = target: 13Myc-tagged Esp1 (S. cerevisiae) (UniProt Q03018); assay: as above; remark: listed apart in the source

By UniProt entry, the sequences of proteins in these tests, tags left out.
UniProt Q03018: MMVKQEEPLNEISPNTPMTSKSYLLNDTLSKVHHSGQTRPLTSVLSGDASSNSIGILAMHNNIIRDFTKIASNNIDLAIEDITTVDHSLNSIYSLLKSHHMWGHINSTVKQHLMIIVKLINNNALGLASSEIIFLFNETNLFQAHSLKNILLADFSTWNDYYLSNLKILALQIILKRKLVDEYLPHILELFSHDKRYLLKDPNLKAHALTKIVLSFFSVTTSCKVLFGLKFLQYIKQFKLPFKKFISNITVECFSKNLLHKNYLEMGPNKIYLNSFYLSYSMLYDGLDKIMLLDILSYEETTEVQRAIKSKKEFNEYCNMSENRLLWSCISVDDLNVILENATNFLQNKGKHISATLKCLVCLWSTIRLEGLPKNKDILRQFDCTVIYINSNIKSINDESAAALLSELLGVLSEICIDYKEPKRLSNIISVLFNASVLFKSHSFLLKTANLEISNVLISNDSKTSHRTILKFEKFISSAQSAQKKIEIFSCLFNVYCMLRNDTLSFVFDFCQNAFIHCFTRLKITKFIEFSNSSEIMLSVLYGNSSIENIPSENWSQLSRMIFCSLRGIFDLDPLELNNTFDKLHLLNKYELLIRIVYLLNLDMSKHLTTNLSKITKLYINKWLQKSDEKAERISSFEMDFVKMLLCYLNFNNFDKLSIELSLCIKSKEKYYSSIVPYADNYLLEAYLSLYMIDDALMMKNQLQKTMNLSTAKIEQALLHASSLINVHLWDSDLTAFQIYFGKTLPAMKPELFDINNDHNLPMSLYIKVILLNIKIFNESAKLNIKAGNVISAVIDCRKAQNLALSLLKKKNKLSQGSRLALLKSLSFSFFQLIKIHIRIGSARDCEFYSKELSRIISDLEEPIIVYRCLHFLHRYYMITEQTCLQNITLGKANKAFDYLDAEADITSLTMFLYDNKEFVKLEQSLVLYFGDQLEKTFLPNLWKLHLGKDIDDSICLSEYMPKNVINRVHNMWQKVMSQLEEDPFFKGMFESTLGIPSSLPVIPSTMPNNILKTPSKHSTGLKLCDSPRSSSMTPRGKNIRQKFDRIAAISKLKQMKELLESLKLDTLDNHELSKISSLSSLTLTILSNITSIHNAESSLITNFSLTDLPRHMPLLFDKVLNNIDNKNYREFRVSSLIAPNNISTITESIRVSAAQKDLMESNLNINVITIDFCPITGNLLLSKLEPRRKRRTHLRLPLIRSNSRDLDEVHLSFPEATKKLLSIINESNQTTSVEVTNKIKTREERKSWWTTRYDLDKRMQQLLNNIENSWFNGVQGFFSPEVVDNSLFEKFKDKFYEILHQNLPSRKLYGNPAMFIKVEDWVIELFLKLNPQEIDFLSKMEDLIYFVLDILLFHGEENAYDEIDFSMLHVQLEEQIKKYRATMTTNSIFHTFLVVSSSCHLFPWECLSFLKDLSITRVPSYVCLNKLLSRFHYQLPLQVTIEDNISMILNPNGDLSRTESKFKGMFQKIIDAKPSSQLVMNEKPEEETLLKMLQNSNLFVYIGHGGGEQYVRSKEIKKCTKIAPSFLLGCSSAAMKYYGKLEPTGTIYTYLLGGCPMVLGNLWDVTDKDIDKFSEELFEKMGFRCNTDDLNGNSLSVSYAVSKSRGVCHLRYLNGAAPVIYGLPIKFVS
UniProt P32558: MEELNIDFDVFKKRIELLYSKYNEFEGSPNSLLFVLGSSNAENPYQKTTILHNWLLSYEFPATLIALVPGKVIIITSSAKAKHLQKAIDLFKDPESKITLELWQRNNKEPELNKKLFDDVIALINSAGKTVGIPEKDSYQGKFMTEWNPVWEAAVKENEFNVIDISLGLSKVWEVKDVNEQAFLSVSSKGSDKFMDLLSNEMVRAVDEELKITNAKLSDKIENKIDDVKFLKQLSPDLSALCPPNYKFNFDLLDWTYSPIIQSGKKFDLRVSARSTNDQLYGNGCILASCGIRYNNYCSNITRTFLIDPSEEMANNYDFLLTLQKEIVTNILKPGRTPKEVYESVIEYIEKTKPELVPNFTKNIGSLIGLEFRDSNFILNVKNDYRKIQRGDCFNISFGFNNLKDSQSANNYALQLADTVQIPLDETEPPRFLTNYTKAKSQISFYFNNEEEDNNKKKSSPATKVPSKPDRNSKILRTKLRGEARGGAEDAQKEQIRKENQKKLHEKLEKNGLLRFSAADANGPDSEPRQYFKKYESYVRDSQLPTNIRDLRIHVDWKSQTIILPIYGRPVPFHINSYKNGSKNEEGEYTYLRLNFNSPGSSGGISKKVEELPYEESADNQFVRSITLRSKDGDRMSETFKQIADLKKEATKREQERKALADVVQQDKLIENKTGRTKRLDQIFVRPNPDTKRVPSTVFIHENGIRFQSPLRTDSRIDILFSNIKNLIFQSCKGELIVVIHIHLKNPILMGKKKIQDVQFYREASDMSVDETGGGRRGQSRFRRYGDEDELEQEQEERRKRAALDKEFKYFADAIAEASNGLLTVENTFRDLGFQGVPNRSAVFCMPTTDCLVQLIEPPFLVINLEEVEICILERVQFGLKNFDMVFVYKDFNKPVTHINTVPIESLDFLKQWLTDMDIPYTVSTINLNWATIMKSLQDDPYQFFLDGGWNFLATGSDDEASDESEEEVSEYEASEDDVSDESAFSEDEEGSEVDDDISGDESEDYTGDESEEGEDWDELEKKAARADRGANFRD
UniProt P34160: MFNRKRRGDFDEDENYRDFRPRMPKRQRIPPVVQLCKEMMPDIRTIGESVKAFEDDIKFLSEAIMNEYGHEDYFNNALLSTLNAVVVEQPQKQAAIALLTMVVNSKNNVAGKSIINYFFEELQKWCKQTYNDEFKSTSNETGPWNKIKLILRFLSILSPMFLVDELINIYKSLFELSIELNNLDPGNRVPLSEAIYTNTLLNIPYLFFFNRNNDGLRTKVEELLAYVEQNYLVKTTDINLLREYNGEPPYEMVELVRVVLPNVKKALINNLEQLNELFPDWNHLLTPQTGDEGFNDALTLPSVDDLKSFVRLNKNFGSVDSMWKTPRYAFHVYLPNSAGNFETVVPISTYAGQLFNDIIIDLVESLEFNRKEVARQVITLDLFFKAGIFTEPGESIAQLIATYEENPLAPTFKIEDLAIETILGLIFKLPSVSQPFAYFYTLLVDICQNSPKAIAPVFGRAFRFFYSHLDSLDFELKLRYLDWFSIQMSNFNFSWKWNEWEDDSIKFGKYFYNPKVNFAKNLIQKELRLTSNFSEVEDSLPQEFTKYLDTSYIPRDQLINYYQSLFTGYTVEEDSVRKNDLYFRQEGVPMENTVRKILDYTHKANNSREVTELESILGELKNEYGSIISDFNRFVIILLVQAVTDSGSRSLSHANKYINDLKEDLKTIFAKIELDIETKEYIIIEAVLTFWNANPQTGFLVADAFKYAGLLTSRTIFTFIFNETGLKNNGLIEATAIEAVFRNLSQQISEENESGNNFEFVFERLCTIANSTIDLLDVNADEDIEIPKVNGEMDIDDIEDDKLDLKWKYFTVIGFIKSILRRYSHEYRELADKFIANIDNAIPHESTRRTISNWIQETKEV

| Molecule | binding [1] | binding [2] |
| --- | --- | --- |
| Spt16 (from UniProt P32558 1-1035) | binds |  |
| Sto1 (from UniProt P34160 1-861) | binds |  |
| Nam7 (protein, UniProt P30771 1-971) MVGSGSHTPYDISNSPSDVNVQPATQLNSTLVEDDDVDNQLFEEAQVTETGFRSPSASDNSCAYCGIDSAKCVIKCNSCKKWFCNTKNGTSSSHIVNHLVLSHHNVVSLHPDSDLGDTVLECYNCGRKNVFLLGFVSAKSEAVVVLLCRIPCAQTKNANWDTDQWQPLIEDRQLLSWVAEQPTEEEKLKARLITPSQISKLEAKWRSNKDATINDIDAPEEQEAIPPLLLRYQDAYEYQRSYGPLIKLEADYDKQLKESQALEHISVSWSLALNNRHLASFTLSTFESNELKVAIGDEMILWYSGMQHPDWEGRGYIVRLPNSFQDTFTLELKPSKTPPPTHLTTGFTAEFIWKGTSYDRMQDALKKFAIDKKSISGYLYYKILGHQVVDISFDVPLPKEFSIPNFAQLNSSQSNAVSHVLQRPLSLIQGPPGTGKTVTSATIVYHLSKIHKDRILVCAPSNVAVDHLAAKLRDLGLKVVRLTAKSREDVESSVSNLALHNLVGRGAKGELKNLLKLKDEVGELSASDTKRFVKLVRKTEAEILNKADVVCCTCVGAGDKRLDTKFRTVLIDESTQASEPECLIPIVKGAKQVILVGDHQQLGPVILERKAADAGLKQSLFERLISLGHVPIRLEVQYRMNPYLSEFPSNMFYEGSLQNGVTIEQRTVPNSKFPWPIRGIPMMFWANYGREEISANGTSFLNRIEAMNCERIITKLFRDGVKPEQIGVITPYEGQRAYILQYMQMNGSLDKDLYIKVEVASVDAFQGREKDYIILSCVRANEQQAIGFLRDPRRLNVGLTRAKYGLVILGNPRSLARNTLWNHLLIHFREKGCLVEGTLDNLQLCTVQLVRPQPRKTERPMNAQFNVESEMGDFPKFQDFDAQSMVSFSGQIGDFGNAFVDNTELSSYINNEYWNFENFKSAFSQKQNRNEIDDRNLYQEEASHLNSNFARELQREEQKHELSKDFSNLGI |  | binds |
| Rnr1 (protein, UniProt P21524 1-888) MYVYKRDGRKEPVQFDKITARISRLCYGLDPKHIDAVKVTQRIISGVYEGVTTIELDNLAAETCAYMTTVHPDYATLAARIAISNLHKQTTKQFSKVVEDLYRYVNAATGKPAPMISDDVYNIVMENKDKLNSAIVYDRDFQYSYFGFKTLERSYLLRINGQVAERPQHLIMRVALGIHGRDIEAALETYNLMSLKYFTHASPTLFNAGTPKPQMSSCFLVAMKEDSIEGIYDTLKECALISKTAGGIGLHIHNIRSTGSYIAGTNGTSNGLIPMIRVFNNTARYVDQGGNKRPGAFALYLEPWHADIFDFIDIRKNHGKEEIRARDLFPALWIPDLFMKRVEENGTWTLFSPTSAPGLSDCYGDEFEALYTRYEKEGRGKTIKAQKLWYSILEAQTETGTPFVVYKDACNRKSNQKNLGVIKSSNLCCEIVEYSAPDETAVCNLASVALPAFIETSEDGKTSTYNFKKLHEIAKVVTRNLNRVIDRNYYPVEEARKSNMRHRPIALGVQGLADTFMLLRLPFDSEEARLLNIQIFETIYHASMEASCELAQKDGPYETFQGSPASQGILQFDMWDQKPYGMWDWDTLRKDIMKHGVRNSLTMAPMPTASTSQILGYNECFEPVTSNMYSRRVLSGEFQVVNPYLLRDLVDLGIWDEGMKQYLITQNGSIQGLPNVPQELKDLYKTVWEISQKTIINMAADRSVYIDQSHSLNLFLRAPTMGKLTSMHFYGWKKGLKTGMYYLRTQAASAAIQFTIDQKIADQATENVADISNLKRPSYMPSSASYAASDFVPAAVTANATIPSLDSSSEASREASPAPTGSHSLTKGMAELNVQESKVEVPEVPAPTKNEEKAAPIVDDEETEFDIYNSKVIACAIDNPEACEMCSG |  | binds |
| Smi1 (protein, UniProt P32566 1-505) MDLFKRKVKEWVYSLSTDDHYAEYNPDETPTFNMGKRLNSNNGQVNPSQMHLNSVDEEMSMGFQNGVPSNEDINIDEFTSTESNDGVSETLLAWRHIDFWTSEHNPDLNATLSDPCTQNDITHAEEDLEVSFPNPVKASFKIHDGQEDLESMTGTSGLFYGFQLMTLDQVVAMTQAWRNVAKNLNKRSQQGLSHVTSTGSSSSMERLNGNKFKLPNIPDQKSIPPNAVQPVYAHPAWIPLITDNAGNHIGVDLAPGPNGKYAQIITFGRDFDTKFVIAENWGEFLLSFANDLEAGNWYLVDDNDDYFSGDGELVFRDKKSNGPIQDYFEVLKRRTWIKYQENLRSQQQKSQPDTSLQEQKYVPASQKKVAAEQPSTLNAESIKGEDSGSADVQSVQDHESVKIVKTEPSEAETTTVNTESLGQAEHEIKADNVDIKQESERKEDEKQPKVEEKEHVENEHVTESAKKDDDVNKQTEEMNKKEENEIRSDDAKVEEAREEFENIAL |  | binds |
